Assay results taken from publication PMC7862700.
The entries are a selection whose mix differs from that of the whole data set. For part of these data: At the low end of the ranking, values are background and their order means little. This is one part of the list. For part of these data: The source does not settle which construct or isoform was used.

Protein sequences, listed by entry. Tags and fused reporters are not part of them. Lines headed by an entry give the natural chain unless they say otherwise; changes in a name come on top.
UniProt Q00613: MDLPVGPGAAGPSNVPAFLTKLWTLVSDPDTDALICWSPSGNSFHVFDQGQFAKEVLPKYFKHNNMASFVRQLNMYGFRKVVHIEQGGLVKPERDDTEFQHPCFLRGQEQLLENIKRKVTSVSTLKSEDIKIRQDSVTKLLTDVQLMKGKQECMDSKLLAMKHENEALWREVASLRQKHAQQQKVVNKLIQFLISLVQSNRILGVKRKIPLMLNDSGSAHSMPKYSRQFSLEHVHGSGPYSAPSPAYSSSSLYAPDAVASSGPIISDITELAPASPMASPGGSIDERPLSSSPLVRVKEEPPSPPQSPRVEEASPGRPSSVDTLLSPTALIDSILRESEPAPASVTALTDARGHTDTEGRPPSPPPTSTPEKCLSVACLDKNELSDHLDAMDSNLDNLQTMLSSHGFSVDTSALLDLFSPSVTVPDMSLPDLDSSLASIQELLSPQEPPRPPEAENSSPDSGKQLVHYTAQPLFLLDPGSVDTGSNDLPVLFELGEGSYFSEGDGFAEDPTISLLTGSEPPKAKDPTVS

How the values were obtained:
HSF1 = HSF1 (UniProt Q00613); assay: DAPPL (digital affinity profiling via proximity ligation, sequencing); settings: 10 mM Tris-HCl pH 7.5, 50 mM NaCl, 1 mM DTT, 4% glycerol, room temperature, 30 min; GST-TFs on glutathione beads, 16-mer random dsDNA library, 0.1% …; high values mean tight binding; double strand, one strand shown; scale: fold enrichment (6-mer frequency, TF over GST control)
ELF2 = molecular target: T1, ELF2 (UniProt Q15723); assay: as above; settings: 10 mM Tris-HCl pH 7.5, 50 mM NaCl, 1 mM DTT, 4% glycerol, room temperature, 30 min; GST-TFs on glutathione beads, 16-mer random dsDNA library, 0.1% …; high values mean tight binding; double strand, one strand shown; scale: fold enrichment (6-mer frequency, TF over GST control)
T1 sequence: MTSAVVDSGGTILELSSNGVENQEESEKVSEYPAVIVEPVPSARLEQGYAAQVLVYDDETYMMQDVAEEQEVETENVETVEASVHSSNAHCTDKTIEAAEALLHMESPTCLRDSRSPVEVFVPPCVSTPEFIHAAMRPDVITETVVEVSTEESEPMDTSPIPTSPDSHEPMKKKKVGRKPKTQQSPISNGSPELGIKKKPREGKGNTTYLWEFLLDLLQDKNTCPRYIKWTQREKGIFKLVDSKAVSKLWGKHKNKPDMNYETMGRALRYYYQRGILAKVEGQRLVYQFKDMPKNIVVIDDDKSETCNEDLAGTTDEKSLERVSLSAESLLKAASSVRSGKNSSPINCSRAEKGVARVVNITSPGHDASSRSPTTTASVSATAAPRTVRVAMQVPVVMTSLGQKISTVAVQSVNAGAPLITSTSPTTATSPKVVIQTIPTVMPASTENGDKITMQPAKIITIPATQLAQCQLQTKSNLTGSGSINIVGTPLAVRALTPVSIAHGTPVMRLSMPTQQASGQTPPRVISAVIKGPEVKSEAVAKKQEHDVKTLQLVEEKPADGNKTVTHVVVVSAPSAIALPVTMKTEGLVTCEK

## CGTGAT
HSF1
  binding signal: 0.487
ELF2
  binding signal: 0.454

## AGGGCG
HSF1
  binding signal: 0.469
ELF2
  binding signal: 0.58

## CGGTGT
HSF1
  binding signal: 0.534
ELF2
  binding signal: 0.737

## AGCTGG
HSF1
  binding signal: 0.938
ELF2
  binding signal: 0.841

## GGTGGA
HSF1
  binding signal: 0.602
ELF2
  binding signal: 0.58

## AGTCAT
HSF1
  binding signal: 0.508
ELF2
  binding signal: 0.593

## CGGAGT
HSF1
  binding signal: 0.267
ELF2
  binding signal: 0.317

## TTGGAG
HSF1
  binding signal: 0.554
ELF2
  binding signal: 0.499

## GCGCCA
HSF1
  binding signal: 0.612
ELF2
  binding signal: 0.74

## GGGATG
HSF1
  binding signal: 0.782
ELF2
  binding signal: 0.922

## GCGGGA
HSF1
  binding signal: 0.389
ELF2
  binding signal: 0.387

## CGCATC
HSF1
  binding signal: 0.609
ELF2
  binding signal: 0.911

## GGCGAT
HSF1
  binding signal: 0.855
ELF2
  binding signal: 0.798

## GTACGG
HSF1
  binding signal: 0.651
ELF2
  binding signal: 0.878

## AGACTA
HSF1
  binding signal: 1.06
ELF2
  binding signal: 0.751

## TCGGCC
HSF1
  binding signal: 0.699
ELF2
  binding signal: 0.724

## CGGGAC
HSF1
  binding signal: 0.445
ELF2
  binding signal: 0.54

## AGACGT
HSF1
  binding signal: 0.486
ELF2
  binding signal: 0.445

## GGGGCC
HSF1
  binding signal: 0.467
ELF2
  binding signal: 0.517

## AGGTGA
HSF1
  binding signal: 0.48
ELF2
  binding signal: 0.517

## GCAGTA
HSF1
  binding signal: 0.763
ELF2
  binding signal: 0.865

## TGAGGT
HSF1
  binding signal: 0.487
ELF2
  binding signal: 0.616

## GCATCA
HSF1
  binding signal: 0.64
ELF2
  binding signal: 0.699

## TCAGTC
HSF1
  binding signal: 0.572
ELF2
  binding signal: 0.576

## TCGGAA
HSF1
  binding signal: 0.506
ELF2
  binding signal: 0.594

## GGCGCC
HSF1
  binding signal: 0.515
ELF2
  binding signal: 0.653

## GAGTAA
HSF1
  binding signal: 0.629
ELF2
  binding signal: 0.539

## AGCCTG
HSF1
  binding signal: 0.887
ELF2
  binding signal: 0.837

## GGACCC
HSF1
  binding signal: 0.624
ELF2
  binding signal: 0.861

## GTGGTG
HSF1
  binding signal: 0.62
ELF2
  binding signal: 0.865

## CGCCGT
HSF1
  binding signal: 0.77
ELF2
  binding signal: 0.846

## ACAGGG
HSF1
  binding signal: 0.634
ELF2
  binding signal: 0.75

## CAAAGG
HSF1
  binding signal: 0.737
ELF2
  binding signal: 0.795

## ATCGGG
HSF1
  binding signal: 0.546
ELF2
  binding signal: 0.423

## GAACGT
HSF1
  binding signal: 0.58
ELF2
  binding signal: 0.387

## CGGGGT
HSF1
  binding signal: 0.518
ELF2
  binding signal: 0.645

## GTCAGT
HSF1
  binding signal: 0.482
ELF2
  binding signal: 0.589

## AGTCGG
HSF1
  binding signal: 0.136
ELF2
  binding signal: 0.157

## ACGGAC
HSF1
  binding signal: 0.621
ELF2
  binding signal: 0.844

## GGCGGT
HSF1
  binding signal: 0.31
ELF2
  binding signal: 0.412

## GACATA
HSF1
  binding signal: 0.756
ELF2
  binding signal: 0.856

## CAGTTG
HSF1
  binding signal: 0.436
ELF2
  binding signal: 0.466

## TGAGAT
HSF1
  binding signal: 0.805
ELF2
  binding signal: 0.668

## CCTGTC
HSF1
  binding signal: 0.657
ELF2
  binding signal: 0.917

## GACGTG
HSF1
  binding signal: 0.293
ELF2
  binding signal: 0.322

## TCGCCA
HSF1
  binding signal: 0.916
ELF2
  binding signal: 0.915

## CGGACT
HSF1
  binding signal: 0.66
ELF2
  binding signal: 0.866

## GGTTCG
HSF1
  binding signal: 0.856
ELF2
  binding signal: 0.808

## AAGAGA
HSF1
  binding signal: 0.939
ELF2
  binding signal: 0.816

## AGCCGT
HSF1
  binding signal: 0.437
ELF2
  binding signal: 0.449

## GGAGCT
HSF1
  binding signal: 0.577
ELF2
  binding signal: 0.556

## GGGGTG
HSF1
  binding signal: 0.504
ELF2
  binding signal: 0.599

## GAGCGG
HSF1
  binding signal: 0.401
ELF2
  binding signal: 0.526

## TGAGTT
HSF1
  binding signal: 0.352
ELF2
  binding signal: 0.395

## GCGGGT
HSF1
  binding signal: 0.496
ELF2
  binding signal: 0.589

## GAGGTA
HSF1
  binding signal: 0.562
ELF2
  binding signal: 0.674

## TGGGCC
HSF1
  binding signal: 0.678
ELF2
  binding signal: 0.855

## CGGCCA
HSF1
  binding signal: 0.651
ELF2
  binding signal: 0.75

## TGCGTG
HSF1
  binding signal: 0.541
ELF2
  binding signal: 0.569

## GAGTCT
HSF1
  binding signal: 0.437
ELF2
  binding signal: 0.392

## GCGTAA
HSF1
  binding signal: 0.914
ELF2
  binding signal: 0.838

## ACCAGG
HSF1
  binding signal: 0.578
ELF2
  binding signal: 0.866

## GCTTGA
HSF1
  binding signal: 0.811
ELF2
  binding signal: 0.862

## CAGACA
HSF1
  binding signal: 0.734
ELF2
  binding signal: 0.795

## GCCCGT
HSF1
  binding signal: 0.562
ELF2
  binding signal: 0.631

## AAGGAC
HSF1
  binding signal: 0.765
ELF2
  binding signal: 0.839

## ACAGAC
HSF1
  binding signal: 0.694
ELF2
  binding signal: 0.775

## TCCGTG
HSF1
  binding signal: 0.379
ELF2
  binding signal: 0.61

## GACGGA
HSF1
  binding signal: 0.415
ELF2
  binding signal: 0.534

## AGGCGG
HSF1
  binding signal: 0.193
ELF2
  binding signal: 0.304

## AGGCGT
HSF1
  binding signal: 0.439
ELF2
  binding signal: 0.501

## GCGTAC
HSF1
  binding signal: 0.728
ELF2
  binding signal: 0.873

## ACAGTC
HSF1
  binding signal: 0.416
ELF2
  binding signal: 0.422

## TGGGTC
HSF1
  binding signal: 0.519
ELF2
  binding signal: 0.624

## GCACGT
HSF1
  binding signal: 0.66
ELF2
  binding signal: 0.754

## GTCGCC
HSF1
  binding signal: 0.61
ELF2
  binding signal: 0.848

## GGGTAG
HSF1
  binding signal: 0.581
ELF2
  binding signal: 0.62

## CGTGGA
HSF1
  binding signal: 0.658
ELF2
  binding signal: 0.538

## GTAAGT
HSF1
  binding signal: 0.751
ELF2
  binding signal: 0.752

## GCGGCG
HSF1
  binding signal: 0.607
ELF2
  binding signal: 0.721

## CAACGG
HSF1
  binding signal: 0.737
ELF2
  binding signal: 0.93

## CAGTCG
HSF1
  binding signal: 0.182
ELF2
  binding signal: 0.173

## AGCCAG
HSF1
  binding signal: 0.499
ELF2
  binding signal: 0.465

## GAGAAG
HSF1
  binding signal: 1.22
ELF2
  binding signal: 0.681

## GCTGTC
HSF1
  binding signal: 0.712
ELF2
  binding signal: 0.852

## CATGAG
HSF1
  binding signal: 0.594
ELF2
  binding signal: 0.625

## GTCGAG
HSF1
  binding signal: 0.585
ELF2
  binding signal: 0.417

## ATAGAG
HSF1
  binding signal: 0.886
ELF2
  binding signal: 0.905

## GTAGAG
HSF1
  binding signal: 0.533
ELF2
  binding signal: 0.558

## GAGGTC
HSF1
  binding signal: 0.476
ELF2
  binding signal: 0.552

## CAGGCC
HSF1
  binding signal: 0.612
ELF2
  binding signal: 0.679

## CGCAGA
HSF1
  binding signal: 0.796
ELF2
  binding signal: 0.739

## AAGTCG
HSF1
  binding signal: 0.457
ELF2
  binding signal: 0.504

## TGAGTA
HSF1
  binding signal: 0.436
ELF2
  binding signal: 0.412

## GGCGTC
HSF1
  binding signal: 0.605
ELF2
  binding signal: 0.777

## TGAGAC
HSF1
  binding signal: 0.437
ELF2
  binding signal: 0.479

## TTCGGA
HSF1
  binding signal: 0.798
ELF2
  binding signal: 0.709

## GCGAGC
HSF1
  binding signal: 0.731
ELF2
  binding signal: 0.833

## GTTCGG
HSF1
  binding signal: 0.678
ELF2
  binding signal: 0.614

## GGCAGT
HSF1
  binding signal: 0.386
ELF2
  binding signal: 0.522

## ACGGAG
HSF1
  binding signal: 0.316
ELF2
  binding signal: 0.359

## GAGTAG
HSF1
  binding signal: 0.463
ELF2
  binding signal: 0.481

## GAGGCA
HSF1
  binding signal: 0.393
ELF2
  binding signal: 0.424

## GATAGA
HSF1
  binding signal: 0.953
ELF2
  binding signal: 0.752

## AGTCGC
HSF1
  binding signal: 0.456
ELF2
  binding signal: 0.467

## GAGAGG
HSF1
  binding signal: 0.478
ELF2
  binding signal: 0.462

## GGACAC
HSF1
  binding signal: 0.535
ELF2
  binding signal: 0.765

## AAGGTG
HSF1
  binding signal: 0.856
ELF2
  binding signal: 0.864

## CGTCAG
HSF1
  binding signal: 0.677
ELF2
  binding signal: 0.834

## GGGGAC
HSF1
  binding signal: 0.372
ELF2
  binding signal: 0.434

## CCAGTC
HSF1
  binding signal: 0.274
ELF2
  binding signal: 0.267

## ATAGGA
HSF1
  binding signal: 0.789
ELF2
  binding signal: 0.918

## CGGACG
HSF1
  binding signal: 0.309
ELF2
  binding signal: 0.49

## CGCATA
HSF1
  binding signal: 0.656
ELF2
  binding signal: 0.739
